The AC50 is the midpoint of the concentration-response curve, whichever way the signal moves.

Among the data in PubChem BioAssay AID493014 (National Center for Advancing Translational Sciences (NCATS), 2011) are AC50 values, retold here.

Structures are written as SMILES. Some of the results follow. Further columns of the screen follow, without active or inactive calls. Compounds called inactive in the main read-out are mostly missing here. Potencies come from curve fits of mixed quality, noted in brackets.

A short description of this test: qHTS Assay to Find Inhibitors of Chronic Active B-Cell Receptor Signaling. The following applies: ABC-DLBCL IkBa-CBG/CBR reporter, luminescence ratio (green luciferase fused to IkBa over red control in TMD8 lymphoma cells), 4 h. A digest of the protocol:
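Compounds up to 46 uM were incubated four hours with TMD8 cells whose green CBG68 luciferase is fused to IkappaBalpha; red CBR luminescence normalised the signal, and concentration-effect curves were fitted to fusion, red and ratio data.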
A general note: In qHTS, concentration-response curves come from the screen itself.

[1] abbreviates: measured here: CBR red luminescence, cell number.
The mark [2] stands for this setting: measured here: IkBa-CBG green luminescence.

As to `Cc1c(C(=O)Nc2cccnc2)oc2ccc(Br)cc12`, the AC50 under setting [1] was 2.51 µM [rising, full curve].

Regarding `CCCCN(CC)CCCNC(=O)c1ccc(CSc2nc3ccncc3[nH]2)cc1`, under setting [1], the AC50 was 35.5 µM [falling, single point].

With `Cc1ccc(-n2nnc3c(SCC(=O)NCc4ccco4)ncnc32)cc1`, under setting [1], the AC50 is 10.3 µM [falling, partial curve].

Turning to `C1COC(NC(C2CC2)C2CC2)=N1`, the AC50 under setting [1] is 25.9 µM [falling, partial curve].

For `Cn1nnnc1Sc1ncnc2scc(-c3ccc[nH]3)c12`, under setting [1], the AC50 is 23.1 µM [falling, single point].

Turning to `COC(=O)c1ccccc1NC(=S)NC(=O)C1CC1`, under setting [1], the AC50 is 16.4 µM [falling, single point].

In the case of `O=C(c1ccc(Br)cc1)c1cc([N+](=O)[O-])ccc1N1CCCCC1`, the AC50 reads like this: under setting [1], 2.82 µM [rising, full curve]; under setting [2], 2.51 µM [falling, full curve].

For the compound `Cc1cccc(OCc2nc(-c3nonc3N)no2)c1C`, the half-maximal activity concentration (AC50) under setting [1] is 0.92 µM [rising, full curve, poor fit].

`Nc1ccc2c(c1)sc1ccccc12`: under setting [1], the AC50 was 11.6 µM [rising, partial curve].

Take `CCOC(=O)Cc1cc(=O)n2[nH]c(C)c(-c3ccc(OC)cc3)c2n1`: under setting [1], the AC50 was 29.1 µM [falling, single point].

Consider `COc1ccc2c(c1)c(/C=N/Nc1ccc(C(=O)O)cc1)c(C)n2C`, for which the AC50 under setting [1] is 0.794 µM [falling, full curve].

With `Cc1nc(N2CCCCC2)c2c(-c3cccs3)csc2n1`, the AC50 under setting [1] was 12.6 µM [rising, partial curve, poor fit].

Regarding `O=C(O)c1ccc(N/N=C/c2ccc(F)c(F)c2)cc1`, the AC50 under setting [1] is 0.00651 µM [falling, full curve, poor fit].

Consider `FC(F)(F)c1cc(-c2cccs2)nc(-n2cc(Cl)cn2)n1`, for which, under setting [1], the half-maximal activity concentration (AC50) is 16.4 µM [falling, partial curve, poor fit].

For `O=C1CCN(C(=O)c2ccccc2)C2CCCCC12` (centres undefined), the AC50 under setting [1] is 0.092 µM [rising, full curve, poor fit].

For `CC(C)(C)NC(=O)COC(=O)c1ccccc1NC(=O)c1ccco1`, under setting [1], the AC50 is 35.5 µM [falling, single point].

As for `COc1cccc(CC(=O)OCC(=O)N(C)CC(=O)Nc2ccc(Cl)c(C(F)(F)F)c2)c1`, the AC50 under setting [1] was 8.2 µM [falling, partial curve, poor fit].

With `Nc1ccc(Cc2ccc(N)c(O)c2)cc1O`, under setting [1], the AC50 is 20 µM [rising, single point].

Take `N#C/C(=C/c1ccc(-c2cc(C(=O)O)cc(C(=O)O)c2)o1)c1nc2ccccc2s1`: under setting [1], the AC50 was 3.98 µM [falling, partial curve].

Consider `Cc1ccc(S(=O)(=O)Nc2ccc(Br)cc2C(NCC(=O)O)c2ccccc2)cc1` (centres undefined), for which the half-maximal activity concentration (AC50) under setting [1] was 2.91 µM [rising, single point].

With `COC(=O)c1ccccc1NC(=O)CSc1nnc(-c2ccc(C)cc2)o1`, the AC50 under setting [1] was 2.59 µM [falling, full curve].

Turning to `Cc1sc2nc(C3CC3)nc(N3CCN(C(=O)c4ccccc4F)CC3)c2c1C`, the half-maximal activity concentration (AC50) under setting [1] is 10 µM [falling, partial curve, poor fit].

For the compound `O=C(c1cc(-c2ccc(Br)cc2)nc2ccccc12)N1CCC1`, the half-maximal activity concentration (AC50) under setting [1] is 5.8 µM [rising, partial curve, poor fit].

In the case of `Oc1ccc(Br)cc1C=Nc1ccc(Cl)cc1`, the AC50 under setting [1] was 1.41 µM [falling, partial curve, poor fit].

For `COc1cc(CN(C)c2ccc(S(=O)(=O)N3CCCC3)cn2)ccc1OC(F)F`, the half-maximal activity concentration (AC50) under setting [1] was 18.4 µM [rising, single point].

Turning to `O/N=C/c1ccccc1OCc1ccccc1F`, the half-maximal activity concentration (AC50) under setting [1] is 2.31 µM [rising, partial curve, poor fit].

Regarding `Cc1c(CCC(=O)N2CCC[C@H]2C(=O)O)c(=O)oc2cc3oc4c(c3cc12)CCCC4`, the concentration at half-maximal activity (AC50) was 2.82 µM [rising, partial curve, poor fit] under setting [1] and 3.16 µM [falling, full curve] under setting [2].

Take `Oc1ccc(-c2nnc(-c3ccc(O)cc3)nn2)cc1`: the AC50 was 0.0517 µM [falling, full curve] under setting [1] and 0.0184 µM [rising, full curve] under setting [2].

As for `O=C(CSc1ccc(Cl)cc1)Nc1ccccc1N1CCN(C(=O)c2ccc(Cl)cc2)CC1`, the AC50 under setting [1] was 8.2 µM [falling, partial curve, poor fit].

Consider `C(C#CCCCCCCCCC[n+]1ccccc1)#CCCCCCCCCC[n+]1ccccc1`, for which the concentration at half-maximal activity (AC50) under setting [1] is 35.5 µM [falling, single point].

With `CC1=NN(C(=O)c2ccc(Cn3cc(Br)c([N+](=O)[O-])n3)o2)C(O)(C(F)(F)F)C1` (centres undefined), under setting [1], the AC50 is 25.9 µM [falling, single point].

Take `CC1(C)CC(=O)C2=C(C1)N(c1ccc(F)cc1)C(=O)CC2c1ccsc1` (centres undefined): the AC50 under setting [1] was 6.51 µM [falling, partial curve, poor fit].

For the compound `CC(=O)c1ccc(N2CCC(c3cc(-c4ccc(Cl)cc4)n[nH]3)CC2)c([N+](=O)[O-])c1`, the half-maximal activity concentration (AC50) under setting [1] is 20 µM [falling, single point].

For the compound `CCCOc1ccc(C(=O)Nc2ccc(Cl)cn2)cc1`, the concentration at half-maximal activity (AC50) under setting [1] is 29.1 µM [falling, single point].

As for `CCOc1ccc(S(=O)(=O)N2CCN(C(=O)c3cccn3C)CC2)cc1`, the AC50 under setting [1] was 0.103 µM [falling, full curve, poor fit].

Regarding `O=C(Cc1cccc2ccccc12)Nc1ccc(N2CCOCC2)cc1`, the AC50 under setting [1] is 5.62 µM [rising, partial curve, poor fit].

In the case of `CCc1ccccc1NC(=O)c1ccc(OCc2c(C)noc2C)cc1`, under setting [2], the AC50 is 13 µM [falling, partial curve, poor fit].

As to `COc1cccc(C(=O)Nc2nnc(S(=O)(=O)Nc3cccc(C)c3)s2)c1`, the AC50 under setting [1] was 35.5 µM [falling, single point].

For `CCc1c(C)nc2cc(-c3cccs3)[nH]n2c1=O`, the AC50 under setting [1] was 14.6 µM [rising, partial curve, poor fit].

Turning to `O=C(NNC1=C(C(=O)C(F)(F)F)CCC1)c1cccnc1`, the AC50 under setting [1] was 11.2 µM [falling, partial curve].

With `CCN1C=C(Cc2ccc(OC)cc2)C2=C(C1)C(c1ccc(OC)cc1)C(C#N)=C(N)O2` (centres undefined), the concentration at half-maximal activity (AC50) under setting [1] is 3.98 µM [falling, partial curve].
